Test results taken from patent WO2013084504A1.
No constants are given. Whether binding was seen depends on the method and setting. Binding can be weak; no strength is given.

The chains behind the UniProt entries cited, without tags or fusion partners. Where a name states a change or a piece, a line headed by the entry shows the natural chain unless it says otherwise.
UniProt O75787: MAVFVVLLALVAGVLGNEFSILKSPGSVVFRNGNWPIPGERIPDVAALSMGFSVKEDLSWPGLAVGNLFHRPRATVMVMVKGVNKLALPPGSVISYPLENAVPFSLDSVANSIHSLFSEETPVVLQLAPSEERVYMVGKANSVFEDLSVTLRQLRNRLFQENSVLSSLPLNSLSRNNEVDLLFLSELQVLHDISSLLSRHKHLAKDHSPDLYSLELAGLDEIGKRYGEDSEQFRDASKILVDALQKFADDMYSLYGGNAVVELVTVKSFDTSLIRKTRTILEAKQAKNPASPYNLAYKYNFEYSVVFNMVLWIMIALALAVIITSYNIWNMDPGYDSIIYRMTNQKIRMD

How the values were obtained:
[1] = biological target: human soluble (pro)renin receptor, s(P)RR (human) (UniProt O75787); assay: immunoprecipitation from transfectant supernatant with protein G Sepharose, Western blot with 93A1B
[2] = biological target: human soluble (pro)renin receptor, s(P)RR (human) (UniProt O75787); assay: immunoprecipitation and immunoblot with 93A1B (FIG. 1C legend)
[3] = biological target: human soluble (pro)renin receptor, s(P)RR (human) (UniProt O75787); assay: sandwich ELISA, PoAb-148 coated as capture, HRP-93A1B Fab' as detection
[4] = biological target: silkworm-derived recombinant human (P)RR-His tag protein (human); assay: sandwich ELISA of recombinant (P)RR added to plasma, serum or medium (recovery test)

Binder	binding [1]	binding [2]	binding [3]	binding [4]
monoclonal antibody 93A1B produced by hybridoma Human pRR Hybridoma 93A1B (FERM BP-11510) (antibody, V domains shown) VH: EVKLVESGGGLVQPGGSLRLSCATSGFTFSDFYMEWVRQPPGKRLEWIAASRNKANDYTTEYSASVKGRFIVSRDTSQSILYLQMNALRAEDTAIYYCARDNWDGGFAYWGQGTLVTVSA VL: DIVMSQSPSSLAVSVGEKVTMSCKSSQSLLYSRNQKNYLAWYQQKPGQSPKLLIYWASTRESGVPDRFTGSGSGTDFTLTISSVKAEDLAVYYCQQYYSYPHMFGGGTKLEIK	binds	binds	–	–
horseradish peroxidase (HRP)-conjugated 93A1B mouse IgG Fab' (Fab, V domains shown) VH: EVKLVESGGGLVQPGGSLRLSCATSGFTFSDFYMEWVRQPPGKRLEWIAASRNKANDYTTEYSASVKGRFIVSRDTSQSILYLQMNALRAEDTAIYYCARDNWDGGFAYWGQGTLVTVSA VL: DIVMSQSPSSLAVSVGEKVTMSCKSSQSLLYSRNQKNYLAWYQQKPGQSPKLLIYWASTRESGVPDRFTGSGSGTDFTLTISSVKAEDLAVYYCQQYYSYPHMFGGGTKLEIK	–	–	binds	binds
